The source of these data is the supplement of paper PMC5949888.

Most values lie at the floor of the assay. Slopes are relative: functional sequences can read slightly below zero.

The series relates to Saccharomyces cerevisiae PS128 hsf1 delta, HSF1(1-493) fusion. The series is described as follows: growth estimate (transactivation domain function in HSF1 fusion, heat-shock survival) (a.u. (slope of normalised read count over time)); higher = stronger growth at 37°C, i.e. more transactivation activity. To be noted: library: random library. How it is done:
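Random 60-nt DNA library encoding peptides of up to 20 aa, fused to the C-terminus of yeast HSF1 residues 1-493 (C-terminal TAD deleted) and expressed from the native HSF1 promoter on a CEN plasmid in hsf1-deleted S. cerevisiae PS128. Cells were selected at 37°C on -trp 5-FOA plates for 0, 2, 4, 6 and 8 days and amplicons were sequenced. Growth estimate is the slope of a robust linear fit of total-sum-normalised read counts (normalised to the first time point) over time, using at least 2 replicates. Sequences are classed functional (TAD activity) above a threshold of -0.13, set from stop-codon control sequences.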
EDMKCVGELRMSSFVSFESQ: the growth estimate is less than -0.25.

On to SAVQEG, for which the growth estimate is less than -0.25.

On to GTMS, for which the growth estimate was less than -0.25.

Consider GLEVAFRLARMGLSS, for which the growth estimate was less than -0.25.

As to PTKDMALGL, the growth estimate is less than -0.25.

As to SPLIPSLPF, the growth estimate was less than -0.25.

Take EVHLNRLHRSQRHYSPEP: the growth estimate is less than -0.25.

Consider NLPLIWILEGNTSGYSSGGL, for which the growth estimate is less than -0.25.

Turning to NAT, the growth estimate was less than -0.25.

RADCYPEPTL: the growth estimate was less than -0.25.

As to WCIFE, the growth estimate was less than -0.25.

Regarding VTPDRD, the growth estimate was less than -0.25.

Consider EDFPSGVPKMCLLHPRIGTR, for which the growth estimate is less than -0.25.

Regarding LHFDSQGNQYHFPLVYGPVC, the growth estimate is -0.246.

AGSCSLSPLIE: the growth estimate is less than -0.25.

As to RTEKWDRRTR, the growth estimate was less than -0.25.

Turning to NNIQISRRDYPGWISLCVAT, the growth estimate is less than -0.25.

Regarding GVDTCRLCITAPGVQCVSHI, the growth estimate is less than -0.25.

With FAYGWSWALGLGLADRGHGL, the growth estimate is less than -0.25.

In the case of VNNTVESAMINTFGRYRAQE, the growth estimate is less than -0.25.

SNRPAKPPVGGLPLSVNGKP: the growth estimate was less than -0.25.

As to SWQGLQGGERIMSLKSATKT, the growth estimate is less than -0.25.

Regarding HIRLSAPPYAIETI, the growth estimate is less than -0.25.

As for TYVASKDTVLGRNASSAGYH, the growth estimate is less than -0.25.

On to TPRYRDVEVPPHWDRLLSPL, for which the growth estimate is less than -0.25.

QPNTGTQRLIRHRQTVHWIN: the growth estimate was less than -0.25.

For the substance LQRMRLAIAKDHSGTNASEL, the growth estimate is less than -0.25.

In the case of SAGVTAVLTVSMPRNDRPHS, the growth estimate was less than -0.25.

In the case of RTPRSQSRVGSVEEAR, the growth estimate is less than -0.25.

For the substance SLNTKVTGLGRLAIG, the growth estimate is less than -0.25.

For the substance KSEDGPHYRHRGVGYR, the growth estimate is less than -0.25.

Consider PGLVLRANVLILYPL, for which the growth estimate is less than -0.25.

In the case of SPKRGSR, the growth estimate is less than -0.25.

As to LTTMGYGFGTAEKIGLPRRG, the growth estimate is less than -0.25.

Consider DPAGGL, for which the growth estimate is less than -0.25.

On to HVSPVVLG, for which the growth estimate is less than -0.25.

Consider VSWILFTYACNGQKS, for which the growth estimate is less than -0.25.

As for GHRKTAKIIGRSVRFDIEIG, the growth estimate is less than -0.25.

Consider IYLVRMR, for which the growth estimate is less than -0.25.

For GRVEG, the growth estimate is less than -0.25.

For the substance RNVEEVSRDSDSPYR, the growth estimate was less than -0.25.

Consider EGMG, for which the growth estimate is less than -0.25.

In the case of CLGRAWQSQSREMERF, the growth estimate was less than -0.25.

For the substance DTRDDPGGIEST, the growth estimate is less than -0.25.

For the substance RQRGI, the growth estimate was less than -0.25.

On to RLRSVGTQGPPVS, for which the growth estimate was less than -0.25.

As to ITSPHRHDNTTF, the growth estimate is less than -0.25.

As to QDWF, the growth estimate was less than -0.25.

With IQFQPWILAGGRFAG, the growth estimate is less than -0.25.

As for YKDS, the growth estimate was less than -0.25.

SQVIDKPKGLRKPCYHSYHT: the growth estimate was less than -0.25.

AAKSCSANP: the growth estimate is less than -0.25.

Turning to CLSIEPGGKYTYTGLGPVRG, the growth estimate was less than -0.25.

For the substance PSPRLDFHWMDATSLAKGPV, the growth estimate is less than -0.25.

Take CGPYKCRSGTGAPRFGQ: the growth estimate is less than -0.25.

For the substance TQSK, the growth estimate is less than -0.25.

CAQNSNGTPLTDLGRTARQL: the growth estimate is less than -0.25.

Consider ASERGGRFDGHQLPLTDLYR, for which the growth estimate was less than -0.25.

FSQLAV: the growth estimate was less than -0.25.

Take GSH: the growth estimate was less than -0.25.

On to HLDILQSPTHQLVKGNEMP, for which the growth estimate was less than -0.25.

As to PINDQEYNLSQLDDFAHKPI, the growth estimate was less than -0.25.

Regarding NIRQALGWGETTGGSKE, the growth estimate is less than -0.25.

Regarding SQAPFLRS, the growth estimate was less than -0.25.

For the substance CYAGKLVFISWGFINENQSR, the growth estimate was less than -0.25.

With AYFTRTSGRSTVGPV, the growth estimate was 0.116.

On to GRVLLLRTRSLHWVRFGSGD, for which the growth estimate is less than -0.25.

Take CAWHY: the growth estimate was less than -0.25.

Turning to PGYC, the growth estimate was less than -0.25.

In the case of SVLCRKYYVNSVMPTEHLPV, the growth estimate was less than -0.25.

For VLESSCWR, the growth estimate was less than -0.25.

On to IYVCKVGWHGRK, for which the growth estimate was less than -0.25.

In the case of TFVTIYTFVFGSSGVAGNTG, the growth estimate was less than -0.25.

On to YSLNN, for which the growth estimate was less than -0.25.

On to LHSPSPLHLH, for which the growth estimate is less than -0.25.

For SDRG, the growth estimate is less than -0.25.

On to LQLLEPANGAPSDEPARLNP, for which the growth estimate is less than -0.25.

As to IFPYLYPLVLVAAASRPSRA, the growth estimate was less than -0.25.

As to TGRR, the growth estimate was less than -0.25.

Take LRAVFHARRAHSTPERVNFL: the growth estimate is less than -0.25.

With HKVCDTHVDLWATHSANRSD, the growth estimate was less than -0.25.

For the substance WSR, the growth estimate was less than -0.25.

As for DSLRRAVQRQR, the growth estimate was -0.243.

Turning to LENG, the growth estimate is -0.111.

As for RMRLKWCRCLLRNPPTGTRY, the growth estimate was less than -0.25.

For GLWS, the growth estimate was less than -0.25.

Regarding FFYR, the growth estimate is less than -0.25.

Regarding LVRARAWYRKVNCRQDLRAV, the growth estimate is less than -0.25.

HSLHAWGAGHVHMGFDTILR: the growth estimate was less than -0.25.

For QSLDPLTCYCNLTESARV, the growth estimate was less than -0.25.

Regarding RLGSQTAWACWTGW, the growth estimate is -0.205.

On to WIRGRIEPWWMGVNV, for which the growth estimate is less than -0.25.

Turning to RIRLQHDKGRACRLMGGALR, the growth estimate was less than -0.25.

On to ILAGKCGWGSESLLGSSLCV, for which the growth estimate was less than -0.25.

On to QSNSNFGNWTVGSGCSSWSL, for which the growth estimate is less than -0.25.

Take FRGTKN: the growth estimate was less than -0.25.

With YLGLRSSLVTNCKGFYKSY, the growth estimate is less than -0.25.

On to LWGQSRVITPYLCHGVADRR, for which the growth estimate is less than -0.25.

For the substance HEVFCCIAVPDVRPVQ, the growth estimate is less than -0.25.

VPAMLLGNTEKRGAGIRKQL: the growth estimate was less than -0.25.

As for IWNAVVSLFCSSRPGT, the growth estimate is less than -0.25.

Take GRLGT: the growth estimate is less than -0.25.

On to LSVRCDVAGEHDMASRIMAP, for which the growth estimate is less than -0.25.

For PAGSTVKGPNSSLLIGQTRR, the growth estimate was less than -0.25.

Turning to ISKAHRSWWLGTRGGVCRGQ, the growth estimate was -0.229.

In the case of SAKVSGVPLKIIFSGHEIRG, the growth estimate was less than -0.25.

For ISESPGTCC, the growth estimate was less than -0.25.

In the case of WIA, the growth estimate is less than -0.25.

As for LCLQIFGGISRR, the growth estimate was less than -0.25.

Consider LIATDNLFGVCFLTD, for which the growth estimate was less than -0.25.

VCKKNIIDLPTEVLHLFACS: the growth estimate is less than -0.25.

For the substance TLQHTEEGDVAVNVEHLAGY, the growth estimate is less than -0.25.

As to PDYKRRFTGSSLLRGLQTGS, the growth estimate was -0.25.

With SYNVELQLCLT, the growth estimate is less than -0.25.

For the substance ALIE, the growth estimate was less than -0.25.

With SGERVRQ, the growth estimate is less than -0.25.

Consider KGVDWP, for which the growth estimate was less than -0.25.
